Data set [1] can be described thus: general procedure: Fmoc solid-phase peptide synthesis; Rink Amide MBHA; 1-hydroxybenzotriazole / N,N-diisopropyl carbodiimide; 1-hydroxybenzotriazole /. Conditions: whole synthesis, scale 0.72 mmol.
Data set [2] in a line: general procedure: Fmoc solid-phase peptide synthesis; Rink Amide MBHA (loading 0.36 mmol/g); 1-hydroxybenzotriazole / N,N-diisopropyl carbodiimide; 1-hydroxybenzotriazole /. Conditions: whole synthesis, scale of the general procedure 0.72 mmol.

In the case of “(PEG2-PEG2-γGlu-CO(CH2)18CO2H)-Val-Iva-Gly-Ser-Pro-Ser-Ala-Gln-Glu-Glu-Ala-Ser-Pro-Ala-NH2”, in data set [1], the crude mass is on record as 1.2 g. Also, in data set [2], the “final HPLC purity” value turned out to be 98.83%.

The values above are taken from US20240336653A1 (Shenzhen Turier Biotech Co., Ltd., priority 2020, published 2024).
